# Out of some 300,000 compounds screened, about 5,400 (1.8%) were called active. The inconclusive results got no clear call from the source; some entries with a clear call stand among them for comparison. The call rests on the fitted dose curve; tested in HEK293 cells. Potencies of inconclusive entries are doubtful fits and often do not repeat.
# Test: qHTS for inhibitors of binding or entry into cells for Marburg Virus
# Conditions: Marburg virus pseudotyped entry inhibition, cell reporter; activity change, negative = inhibition: at 37.8 µM (top of the series) unless noted
# On the % scale 0 is the no-effect control and ±100 the full control effect; potency means the concentration at half of the fitted maximal effect.
SMILES,Potency,"activity change, negative = inhibition"
CN1CCC(N(C)S(=O)(=O)c2ccc(NC(=O)COc3cccc(Cl)c3)cc2)CC1,"inconclusive: 35.5 µM [inhibitor, single point]",
C/C(=N\Nc1nc(N2CCCCC2)nc(N2CCOCC2)n1)c1ccccc1O,active: 1.78 µM,
CCOC(=O)c1cnn(-c2cc(C)c3ccccc3n2)c1N,,inactive: 3.74%
Cc1cc(CO)nn1-c1ccc([N+](=O)[O-])cc1,"inconclusive: 0.794 µM [inhibitor, full curve, poor fit]",
COc1ccc(C)cc1Cn1c(S(C)(=O)=O)nc2ccccc21,,inactive: -17%
O=C(Nc1ccccc1N1CCCC1)C1CCCO1 (stereo not given),"inconclusive: 2.24 µM [inhibitor, partial curve]",
NS(=O)(=O)c1ccc(NC(=O)Nc2ccc(C(F)(F)F)cc2)cc1,"inconclusive: 35.5 µM [inhibitor, single point]",
Cc1nn(C(=O)c2cc3sccc3[nH]2)c(C)c1C,,inactive: 13%
Cc1nn(CCCC(=O)Nc2ccccc2C(F)(F)F)c(=O)c2c1sc1ccccc12,"inconclusive: 10 µM [activator, single point]",
COC(=O)c1cc(C(=O)OC)n(Cc2ccc(Cl)cc2Cl)n1,"inconclusive: 32.6 µM [activator, partial curve, poor fit]",
Cc1cccnc1CN1CCN(C(=O)c2cc(COc3ccc4ncccc4c3)on2)CC1,"inconclusive: 1.26 µM [inhibitor, full curve, poor fit]",
Nc1nc2c(Cl)ccc(Cl)c2s1,,inactive: -2.95% [at 46.1 µM]
COCCCNC(=S)N1CCN(C(c2ccccc2)c2ccccc2)CC1,"inconclusive: 10 µM [inhibitor, single point]",
Cc1ccc(Cn2ccc(NC(=O)c3noc4c3CCCC4)n2)cc1,,inactive: -4.45%
Cc1cccnc1NC(=O)CSc1nnc(CNC(=O)c2cccc([N+](=O)[O-])c2)n1C,,inactive: 12.1%
COc1ccccc1CCNC(=O)CCc1c(C)c2cc3c(C)coc3c(C)c2oc1=O,,inactive: -1.54% [at 46.1 µM]
CCCCn1c(C23CC4CC(CC(C4)C2)C3)n[nH]c1=S,"inconclusive: 0.631 µM [inhibitor, full curve]",
CN(C)c1ccc(NC(=O)c2cccc(N3C(=O)C4C5C=CC(C5)C4C3=O)c2)cc1 (stereo not given),,inactive: 0.29%
[2H]c1c([2H])c([2H])c(C(=O)c2sc(N3CCCCCC3)nc2-c2ccccc2)c([2H])c1[2H],"inconclusive: 35.5 µM [inhibitor, single point]",
Cc1nn2c(NCCCN(C)C)c3c(nc2c1-c1ccccc1)CCCC3,active: 7.08 µM,
Cc1ccc(-c2cn(S(=O)(=O)c3cccc4nsnc34)nc2N)cc1,"inconclusive: 1.26 µM [inhibitor, single point]",
N#Cc1cn(CCOc2ccccc2F)c2ccccc12,,inactive: 7.3%
Cc1ccccc1C(=O)NN(C)c1nc2ccccc2nc1C(F)(F)F,"inconclusive: 3.16 µM [inhibitor, single point]",

SMILES,Potency,"activity change, negative = inhibition"
Fc1ccc(N=Cc2ccc[nH]2)cc1,,inactive: 3.94% [at 46.1 µM]
CC(=O)c1c(C)[nH]c(C(=O)OCc2cccc(C)c2)c1C,"inconclusive: 17.8 µM [inhibitor, single point]",
O=C(Nc1cccc(Cl)c1)Nc1cccc(C(=O)O)c1,"inconclusive: 3.55 µM [inhibitor, partial curve, poor fit]",
Cc1ccc(Cn2nnc3c(=O)[nH]c(C4CCN(S(=O)(=O)/C=C/c5ccccc5)CC4)nc32)cc1,"inconclusive: 12.6 µM [inhibitor, partial curve, poor fit]",
Cc1ccc(S(=O)(=O)N2CCCCC2)cc1C(=O)NCCCN1CCOCC1,"inconclusive: 1 µM [inhibitor, single point]",
CCOc1ccccc1N(C)C(=O)Cn1cnc2sc(C)c(S(=O)(=O)N3CCC(C)CC3)c2c1=O,,inactive: 2.97% [at 46.1 µM]
Cc1sc2nc(SCC(=O)N(C)c3ccccc3)n(C)c(=O)c2c1C,"inconclusive: 35.5 µM [inhibitor, single point]",
Cc1ccc(N=Cc2c(O)n(-c3nccs3)c(=O)c3ccccc23)cc1,"inconclusive: 0.112 µM [activator, full curve, poor fit]",
COc1ccc(CCNCc2c(C(=O)O)c(C)n(Cc3ccccc3C)c2C)c(OC)c1,,inactive: 12.3% [at 46.1 µM]
CC(C)(C)c1ccc(-c2n[nH]c(=S)n2Cc2ccccc2)cc1,"inconclusive: 7.08 µM [inhibitor, full curve, poor fit]",
Cc1onc(-c2ccccc2)c1C(=O)N/N=C/c1cc2c(cc1Br)OCO2,"inconclusive: 0.794 µM [activator, single point]",
CC(C)N1C/C(=C/c2ccsc2)C(=O)/C(=C/c2ccsc2)C1,"inconclusive: 14.1 µM [inhibitor, partial curve, poor fit]",
Cc1cccnc1NC(=O)/C=C/c1ccc2c(c1)OCO2,,inactive: -7.85%
CCN(CC)c1ccc(NC(=O)C(Cc2ccccc2)NS(=O)(=O)c2ccc(Br)s2)c(C)c1 (stereo not given),,inactive: 13.3% [at 46.1 µM]
CN(C)C(=O)CCc1ccc2c3c([nH]c2c1)[C@]1(CCC2CCCC2)[C@@H](C(=O)N2CCOCC2)C[C@H](CC(=O)NCc2ccco2)C(=O)N1CC3,,inactive: 2.09%
CSc1nsc(NC(=O)Cc2ccccc2)n1,,inactive: 19.8%
O=C(c1ccc(Cl)c(S(=O)(=O)N2CCOCC2)c1)N(Cc1ccco1)Cc1cccs1,"inconclusive: 7.08 µM [inhibitor, partial curve, poor fit]",
Cc1nn(-c2nc3ccccc3n2Cc2ccccc2)c2c1C(=O)CC(C)(C)C2,"inconclusive: 0.1 µM [inhibitor, full curve, poor fit]",
COc1ccc(Br)cc1/C=N/NC(=O)CN1CCN(Cc2ccccc2)CC1,"inconclusive: 3.98 µM [inhibitor, partial curve, poor fit]",
Cc1cccc(-n2c(C)nc3cc(C(=O)NCc4ccc5c(c4)OCO5)ccc32)c1,,inactive: 0.946%
Cc1ccc(S(=O)(=O)N2CCOCC2)cc1NC(=O)COc1ccc2c(C)cc(=O)oc2c1,"inconclusive: 35.5 µM [inhibitor, single point]",
C[C@]12CCC(=O)C=C1CC[C@@H]1[C@@H]2[C@@H](O)C[C@@]2(C)[C@H]1CC[C@]2(O)C(=O)COC(=O)CCC(=O)O,"inconclusive: 0.794 µM [inhibitor, single point]",

# Quoted at random: 3 compounds from above.
SMILES,Potency,"activity change, negative = inhibition"
COc1ccc(CCNCc2c(C(=O)O)c(C)n(Cc3ccccc3C)c2C)c(OC)c1,,inactive: 12.3% [at 46.1 µM]
CC(=O)c1c(C)[nH]c(C(=O)OCc2cccc(C)c2)c1C,"inconclusive: 17.8 µM [inhibitor, single point]",
COc1ccc(Br)cc1/C=N/NC(=O)CN1CCN(Cc2ccccc2)CC1,"inconclusive: 3.98 µM [inhibitor, partial curve, poor fit]",

# — PubChem BioAssay AID540276 (National Center for Advancing Translational Sciences (NCATS), 2011)
